This is an account of results in publication PMC5672003.

Results are given in words; binding and its absence hold for the method and conditions named. Some binding calls cover weakened binding; strength is not graded here.

The target in this test is T1, …1 (Arabidopsis (endogenous in leaves)) (UniProt P32961).
T1 sequence: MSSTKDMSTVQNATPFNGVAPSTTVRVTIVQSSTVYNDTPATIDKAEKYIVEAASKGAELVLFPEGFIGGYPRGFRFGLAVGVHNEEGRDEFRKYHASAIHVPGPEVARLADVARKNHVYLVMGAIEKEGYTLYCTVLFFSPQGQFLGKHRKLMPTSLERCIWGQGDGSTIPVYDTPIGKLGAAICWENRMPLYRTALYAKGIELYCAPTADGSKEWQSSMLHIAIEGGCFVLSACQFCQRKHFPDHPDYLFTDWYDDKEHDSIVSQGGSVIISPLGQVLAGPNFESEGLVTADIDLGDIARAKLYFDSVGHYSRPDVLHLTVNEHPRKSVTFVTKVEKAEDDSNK
Briefly: SEC; protein correlation profiling: cholate-solubilized Arabidopsis leaf microsomal proteins on Superdex 200 10/300 GL or Superose 6 10 x 300 GL at 6 °C; 50 mM HEPES-KOH pH 7.8, 100 mM NaCl, 10 mM MgCl2, 5% glycerol, 0.1% sodium cholate; fractions quantified by label-free LC-MS/MS; two biological replicates. (In general: SEC sorts molecules by how far they enter the pores of the column.)

B1: NIT3 (enzyme, UniProt P46010 1-346)
chain: MSSTEEMSSVKNTTQVIGVDPSSTVRVTIVQSSTVYNDTPATLDKAEKFIVEAASKGAKLVLFPEAFIGGYPRGFRFGLAVGVHNEEGRDEFRNYHASAIKVPGPEVERLAELAGKNNVHLVMGAIEKDGYTLYCTALFFSPQGQFLGKHRKVMPTSLERCIWGQGDGSTIPVYDTPIGKIGAAICWENRMPLYRTALYAKGIEIYCAPTADYSLEWQASMIHIAVEGGCFVLSAHQFCKRREFPEHPDYLFNDIVDTKEHDPTVSGGGSVIISPLGKVLAGPNYESEGLVTADLDLGDIARAKLYFDVVGHYSKPDIFNLTVNEHPKKPVTFMTKVEKAEDESNK
As to B1, the binding entry was “binds”.
